This series can be described thus: Corning Epic immobilization of candidate peptides to microplate wells without carbonic anhydrase. To be noted: 24 replicates, BMPH linker.

Some entries repeat one wording, which the source may state once for all of them.

“CA1: 20-residue candidate attachment peptide for carbonic anhydrase, C-terminal glycine-serine-cysteine; sequence only in FIG. 6A (FNAPIWWYIYPRHVRHAGSC; CA1 (Carbonic Anhydrase Peptide 1))”: the “wavelength shift on immobilization of peptide to Epic well surface” value is reported as “relatively low wavelength shift”.

Turning to “CA2: 20-residue candidate attachment peptide for carbonic anhydrase, C-terminal glycine-serine-cysteine; sequence only in FIG. 6A (FRNFPVPVIFRYLNPWPGSC; CA2 (Carbonic Anhydrase Peptide 2))”, the “wavelength shift on immobilization of peptide to Epic well surface” value was “relatively low wavelength shift”. The same measure for “CA3: 20-residue candidate attachment peptide for carbonic anhydrase, C-terminal glycine-serine-cysteine; sequence only in FIG. 6A (HKHFFHHWHWFHKRRWFGSC; CA3 (Carbonic Anhydrase Peptide 3))”: “relatively low wavelength shift”; for “CA12: 20-residue candidate attachment peptide for carbonic anhydrase, C-terminal glycine-serine-cysteine; sequence only in FIG. 6A (SIGIYGHAIARPGGWYFGSC; CA12 (Carbonic Anhydrase Peptide 12))”: “relatively low wavelength shift”.

The record behind these values is US8481679B2, “Immobilizing an entity in a desired orientation on a support material” (Arizona Board of Regents Acting on behalf of Arizona State …, priority 2007, dated 2013).
